This test is described as follows: qHTS for identification of novel therapeutic agents for treatment of microphthalmiaassociated transcription factor (MiT) renal cell carcinoma (RCC) (AID 1963991). Particulars: CellTiter-Glo, 48 h; for z-score: stronger effect = lower value. The essentials: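 UOK109/UOK124/UOK145 (TFE3 fusions, three partners); 500 cells/well; MIPE v4.0, 1912 cpds, 11 conc.; 48 h, 37 C; CellTiter-Glo, 15 min RT; lum. Norm.: DMSO 100%, empty 0%.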
In general terms: Quantitative high-throughput screening tests each substance at several concentrations.

[1] abbreviates: TFE3-RCC UOK109 viability, measured here: UOK109 Z-AUC.
Setting [2] is: TFE3-RCC viability, measured here: UOK124 Z-AUC.
[3] abbreviates: TFE3-RCC viability, measured here: UOK124 cell viability.
The mark [4] stands for this setting: TFE3-RCC viability, measured here: UOK145 Z-AUC.
Setting [5] is: TFE3-RCC viability, measured here: UOK145 cell viability.

By AC50 is commonly meant the concentration giving half of the maximal activity seen.

The other results are listed elsewhere or left out. These are further read-outs of the screen, such as a control signal, another cell line or another target. No call is given for them. Compounds called inactive in the main read-out are mostly missing here. The note in brackets gives the kind of curve behind each potency; many fits are weak.

`C[C@@H]1C[C@H]2[C@@H]3CCC4=CC(=O)C=C[C@]4(C)[C@@]3(Cl)[C@@H](O)C[C@]2(C)[C@@]1(OC(=O)c1ccco1)C(=O)CCl` showed a z-score under setting [1] of -0.555, a z-score under setting [2] of 0.327 and a z-score under setting [4] of 0.119. Also, the concentration at half-maximal activity (AC50) runs as follows: under setting [3], 26.4 µM [falling, partial curve]; under setting [5], 2.96 µM [falling, full curve].
In the case of `COC(=O)c1ccc2c(C(=Nc3ccc(N(C)C(=O)CN4CCN(C)CC4)cc3)c3ccccc3)c(O)[nH]c2c1`, the z-score is -0.092 under setting [1], 0.491 under setting [2] and 0.414 under setting [4]. The AC50 is, setting by setting: under setting [3], 1.32 µM [falling, partial curve, poor fit]; under setting [5], 37.2 µM [falling, single point].
For `CCOC(=O)N1CCN([N+]([O-])=NOc2ccc([N+](=O)[O-])cc2[N+](=O)[O-])CC1`, the z-score is -0.237 under setting [1], -0.465 under setting [2] and -0.337 under setting [4]. Moreover, the half-maximal activity concentration (AC50) under setting [3] is 14.8 µM [falling, partial curve] and the AC50 under setting [5] is 8.33 µM [falling, partial curve].
With `CC(C)[C@H](CO)Nc1nc(Nc2ccc(C(=O)O)c(Cl)c2)c2ncn(C(C)C)c2n1`, the z-score reads like this: under setting [1], -0.113; under setting [2], 0.277; under setting [4], -1.25. Besides, the AC50 under setting [3] is 20.9 µM [falling, single point] and the AC50 under setting [5] was 26.4 µM [falling, partial curve, poor fit].
In turn, `O=C(O)c1ccc(-c2cc3cccnc3c(-c3ccc4nonc4c3)n2)cc1` returned a z-score under setting [1] of 0.0059, a z-score under setting [2] of -0.0934 and a z-score under setting [4] of 0.244. Also, the AC50 is, setting by setting: under setting [3], 18.7 µM [falling, partial curve]; under setting [5], 23.5 µM [falling, single point].
On to `COc1cccc2c1C(=O)c1c(O)c3c(c(O)c1C2=O)C[C@@](O)(C(=O)CO)C[C@H]3O[C@H]1C[C@H](N)[C@H](O)[C@H](C)O1`, for which the z-score was -1.63 under setting [1], -1.84 under setting [2] and -0.77 under setting [4]. Besides, the AC50 is 0.118 µM [falling, full curve] under setting [3] and 0.372 µM [falling, full curve] under setting [5].
For `CC1CCN(c2cc(N3CCN(C)CC3)ccc2NC(=O)c2cc(C#N)c[nH]2)CC1`, the z-score reads like this: under setting [1], 0.867; under setting [2], -0.647; under setting [4], 0.209. In addition, the AC50 reads like this: under setting [3], 18.7 µM [falling, partial curve, poor fit]; under setting [5], 20.9 µM [falling, single point].
With `CC(=O)N1CCN(c2ccc(OCc3nn(C)c(C)c3-c3cccc4c(CCCOc5cc(C)c(Cl)c(C)c5)c(C(=O)O)n(Cc5cccnc5)c34)cc2)CC1`, the z-score was 0.433 under setting [1], 0.531 under setting [2] and -0.728 under setting [4]. The AC50 was 33.2 µM [falling, single point] under setting [3] and 23.5 µM [falling, single point] under setting [5].
`Cc1ccc(S(=O)(=O)NC(=O)NN2CC3CCCC3C2)cc1` (stereo not given): the z-score under setting [1] was -1.13, the z-score under setting [2] was -0.281 and the z-score under setting [4] is 0.558. Further, the concentration at half-maximal activity (AC50) runs as follows: under setting [3], 26.4 µM [falling, partial curve]; under setting [5], 18.7 µM [falling, single point].
As to `CNS(=O)(=O)CCc1ccc2[nH]cc(C3CCN(C)CC3)c2c1`, the z-score is -0.339 under setting [1], 0.354 under setting [2] and -0.998 under setting [4]. For the same molecule, the AC50 under setting [3] is 26.4 µM [falling, single point] and the AC50 under setting [5] is 1.05 µM [falling, full curve].
`Cc1[nH]c(C=C2C(=O)Nc3ccc(S(=O)(=O)N(C)c4cccc(Cl)c4)cc32)c(C)c1C(=O)N1CCN(C)CC1`: the z-score is 0.639 under setting [1], -0.152 under setting [2] and 0.432 under setting [4]. The AC50 runs as follows: under setting [3], 16.6 µM [falling, partial curve]; under setting [5], 26.4 µM [falling, single point].
In the case of `CN1CCC[C@H]1CCO[C@](C)(c1ccccc1)c1ccc(Cl)cc1`, the z-score was determined as 0.261 under setting [1], 0.411 under setting [2] and 0.0171 under setting [4]. For the same molecule, the half-maximal activity concentration (AC50) is, setting by setting: under setting [3], 37.2 µM [falling, single point]; under setting [5], 37.2 µM [falling, partial curve, poor fit].
Regarding `CCn1c(-c2nonc2N)nc2cncc(CNC3CCNCC3)c21`, the z-score by setting is: under setting [1], 0.487; under setting [2], 0.497; under setting [4], -0.298. In addition, the concentration at half-maximal activity (AC50) by setting is: under setting [3], 11.8 µM [falling, partial curve]; under setting [5], 14.8 µM [falling, partial curve].
`COc1ccc(CCN2CCN(CCCc3ccccc3)CC2)cc1OC`: the z-score by setting is: under setting [1], 0.347; under setting [2], 0.665; under setting [4], 0.504. The AC50 by setting is: under setting [3], 23.5 µM [falling, single point]; under setting [5], 33.2 µM [falling, partial curve, poor fit].
With `C[C@@H](CN1CC(=O)NC(=O)C1)N1CC(=O)NC(=O)C1`, the z-score runs as follows: under setting [1], 0.325; under setting [2], 0.956; under setting [4], 0.403. In addition, the AC50 is 2.64 µM [falling, full curve] under setting [3] and 37.2 µM [falling, partial curve, poor fit] under setting [5].
In the case of `C[C@@H]1CN(CC(=O)Nc2ccc3c(c2)Cc2cccc(-c4cc(=O)cc(N5CCOCC5)o4)c2S3)C[C@H](C)O1`, the z-score was -0.0411 under setting [1], 0.164 under setting [2] and 0.68 under setting [4]. In addition, the AC50 was 7.43 µM [falling, full curve] under setting [3] and 16.6 µM [falling, partial curve] under setting [5].
In the case of `CN(C)C1CCN(C(=O)c2ccc(NC(=O)Nc3nc(N4CCOCC4)nc(N4CCOCC4)n3)cc2)CC1`, the z-score runs as follows: under setting [1], -0.371; under setting [2], -1.04; under setting [4], -0.99. Besides, the AC50 was 0.166 µM [falling, full curve] under setting [3] and 0.743 µM [falling, full curve] under setting [5].

These data come from PubChem BioAssay (NCATS).
